PMC8556256

Molecular target: Flag-tagged WT PITX2 (mouse)
Experiment: co-IP; 293T cells co-transfected with PITX2-Flag (WT or R115L) and NRF2-HA or YAP1-HA; lysis in 50 mM Tris-HCl pH 7.5, 150 mM NaCl, 1% Nonidet P-40, 0.5% sodium deoxycholate; Flag immunoprecipitation at 4 °C overnight, six washes, blot with anti-HA; relative binding capacity = normalized IP-HA intensity / normalized IP-Flag intensity (ImageJ)

binding: binds
B1: HA-tagged NRF2 (protein, UniProt Q60795 1-597)
chain: MMDLELPPPGLQSQQDMDLIDILWRQDIDLGVSREVFDFSQRQKDYELEKQKKLEKERQEQLQKEQEKAFFAQFQLDEETGEFLPIQPAQHIQTDTSGSASYSQVAHIPKQDALYFEDCMQLLAETFPFVDDHESLALDIPSHAESSVFTAPHQAQSLNSSLEAAMTDLSSIEQDMEQVWQELFSIPELQCLNTENKQLADTTAVPSPEATLTEMDSNYHFYSSISSLEKEVGNCGPHFLHGFEDSFSSILSTDDASQLTSLDSNPTLNTDFGDEFYSAFIAEPSDGGSMPSSAAISQSLSELLDGTIEGCDLSLCKAFNPKHAEGTMEFNDSDSGISLNTSPSRASPEHSVESSIYGDPPPGFSDSEMEELDSAPGSVKQNGPKAQPAHSPGDTVQPLSPAQGHSAPMRESQCENTTKKEVPVSPGHQKAPFTKDKHSSRLEAHLTRDELRAKALHIPFPVEKIINLPVDDFNEMMSKEQFNEAQLALIRDIRRRGKNKVAAQNCRKRKLENIVELEQDLGHLKDEREKLLREKGENDRNLHLLKRRLSTLYLEVFSMLRDEDGKPYSPSEYSLQQTRDGNVFLVPKSKKPDTKKN

No constants are given. Whether binding was seen depends on the method and setting. In cells and extracts the contact can be indirect. Binding can be weak; no strength is given. Sequences can lack the tags named with a protein.
